In the supplement of paper PMC10470496:
Where a name gives a salt, the structure may show the parent alone. Some of the results follow. Many values rest on one well or one pass, so single values are uncertain.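 The strains were three CDC resistance-bank clinical C. auris isolates from clades III, IV and I, cultured in RPMI-1640 at 35°C. Growth was background-corrected OD600 versus vehicle-only wells on the same plate. A hit needed >50% inhibition in two or more strains plus a plate-corrected B-score exceeding 0.1.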

Tests used:
Test in all cases: growth relative to vehicle control (OD600 ratio) (fraction); higher = less inhibition
Details in all cases: 24 h
C. auris AR-384 = system: C. auris AR-384
C. auris AR-386 = system: C. auris AR-386
C. auris AR-387 = system: C. auris AR-387

Row | SMILES | growth (C. auris AR-384; 1 µM) | growth (C. auris AR-384; 10 µM) | growth (C. auris AR-386; 1 µM) | growth (C. auris AR-386; 10 µM) | growth (C. auris AR-387; 1 µM) | growth (C. auris AR-387; 10 µM)
1 | O=C(NCCN1CCOCC1)c1ccc(Cl)cc1 | 0.95 | 0.76 | 1.01 | 1.02 | 0.62 | 0.82
2 | O=c1[nH]c(=O)n(C2CCCO2)cc1F (configuration not stated) | 1.07 | 0.67 | 1.07 | 1.11 | 0.9 | 0.89
3 | CC#C[C@]1(O)CC[C@H]2[C@@H]3CCC4=CC(=O)CCC4=C3[C@@H](c3ccc(N(C)C)cc3)C[C@@]21C [Mifepristone] | 0.88 | 0.99 | 1.13 | 1.06 | 0.82 | 1.19
4 | COCCOC(=O)C1=C(C)NC(C)=C(C(=O)OC(C)C)C1c1cccc([N+](=O)[O-])c1 (configuration not stated) [Nimodipine] | 0.92 | 0.84 | 0.88 | 1.09 | 0.8 | 0.99
5 | CCCOc1ccc(C(=O)OCCN(CC)CC)cc1N [Proparacaine HCl] | 0.96 | 0.93 | 0.82 | 1.21 | 0.92 | 0.77
6 | c1ccc(C2CN3CCSC3=N2)cc1 (configuration not stated) [Tetramisole HCl] | 0.58 | 0.38 | 0.8 | 0.71 | 0.72 | 0.62
7 | CC1(C)O[C@@H]2C[C@H]3[C@@H]4CCC5=CC(=O)C=C[C@]5(C)[C@H]4[C@@H](O)C[C@]3(C)[C@]2(C(=O)CO)O1 [Desonide] | 0.91 | 1.25 | 1.16 | 0.9 | 0.96 | 1.13
8 | O=C(O)C1(C(=O)O)CCC1.[NH2-].[NH2-].[Pt+2] [Carboplatin] | 0.71 | 1.05 | 0.78 | 1.13 | 0.82 | 0.91
9 | OC[C@H]1O[C@@H](O[C@@H]2[C@@H](CO)OC(O)(CO)[C@H]2O)[C@H](O)[C@@H](O)[C@H]1O (mixture of isomers) [Lactulose] | 0.85 | 0.82 | 1.05 | 1.33 | 1.06 | 1.15
10 | O=C(O)c1cc(/N=N/c2ccc(O)c(C(=O)O)c2)ccc1O [Olsalazine Sodium] | 0.96 | 0.82 | 0.68 | 0.95 | 0.75 | 1.05
11 | CCn1cc(C(=O)O)c(=O)c2cc(F)c(N3CCNCC3)cc21 [Norfloxacin] | 1.16 | 0.58 | 0.96 | 0.92 | 0.95 | 0.94
12 | C[C@]12CC[C@@H]3c4ccc(O)cc4CC[C@H]3[C@@H]1CC[C@@H]2OC(=O)CCC1CCCC1 [Estradiol Cypionate] | 1.03 | 0.9 | 0.85 | 0.92 | 0.97 | 0.7
13 | NC(=O)Cc1cccc(C(=O)c2ccccc2)c1N [Nepafenac] | 0.73 | 0.62 | 0.78 | 1.06 | 1.09 | 0.85
14 | O=C(O)CCc1nc2ccccc2[nH]1 [Procodazole] | 1.11 | 1.31 | 0.74 | 1.13 | 1.02 | 1.22
15 | O=c1ccc2ccccc2o1 [Coumarin] | 0.89 | 0.85 | 0.98 | 0.81 | 0.94 | 0.96
16 | NC(=O)c1cccnc1 [Nicotinamide (Vitamin B3)] | 1.12 | 1.27 | 1.11 | 1.39 | 1.38 | 1.36
17 | C#C[C@]1(O)CC[C@H]2[C@@H]3CCC4=CC(=O)CC[C@@H]4[C@H]3CC[C@@]21CC [Levonorgestrel] | 1.42 | 1.16 | 1.11 | 0.94 | 0.88 | 0.73
18 | Cc1cccn2c(=O)c(-c3nnn[nH]3)cnc12 [Pemirolast potassium] | 0.69 | 0.71 | 0.85 | 0.55 | 1 | 1.14
19 | NCCS(=O)(=O)O [Taurine] | 1.58 | 1.33 | 1.2 | 1.33 | 1.15 | 1.2
20 | N[C@@H](CSCCCO)C(=O)O [Fudosteine] | 0.68 | 1.32 | 0.93 | 1.08 | 1.02 | 1.16
21 | COc1ccc(-c2nc3cc(C4=NNC(=O)CC4C)ccc3[nH]2)cc1 (configuration not stated) [Pimobendan] | 1.21 | 1.28 | 1.3 | 0.78 | 0.87 | 0.83
22 | Cc1cc(NC(=O)C2=C(O)c3ccccc3S(=O)(=O)N2C)no1 [Isoxicam] | 1.19 | 0.85 | 1.07 | 0.75 | 0.65 | 0.66
23 | O=C(Nc1c(Cl)cncc1Cl)c1ccc(OC(F)F)c(OCC2CC2)c1 [Roflumilast] | 1.08 | 1.03 | 1.04 | 0.84 | 0.9 | 0.8
24 | CN1C(C(=O)Nc2ccccn2)=C(O)c2sc(Cl)cc2S1(=O)=O [Lornoxicam] | 1.19 | 1.32 | 1.25 | 1.25 | 1.61 | 1.53
25 | CC(=O)OCC(=O)[C@H]1CC[C@H]2[C@@H]3CCC4=CC(=O)CC[C@]4(C)[C@H]3CC[C@]12C [Deoxycorticosterone acetate] | 0.94 | 0.91 | 0.93 | 0.97 | 1.05 | 0.8
26 | CCC1(C)CC(=O)NC1=O (configuration not stated) [Ethosuximide] | 0.92 | 0.86 | 0.99 | 0.9 | 1.02 | 0.91
27 | CC(C)[N+]1(C)[C@@H]2CC[C@H]1C[C@@H](OC(=O)C(CO)c1ccccc1)C2 (some centres not stated) [Ipratropium Bromide] | 0.79 | 1.33 | 1.35 | 1.21 | 1.55 | 1.41

Copied from above: compounds 2 to 3
Row | SMILES | growth (C. auris AR-384; 1 µM) | growth (C. auris AR-384; 10 µM) | growth (C. auris AR-386; 1 µM) | growth (C. auris AR-386; 10 µM) | growth (C. auris AR-387; 1 µM) | growth (C. auris AR-387; 10 µM)
2 | O=c1[nH]c(=O)n(C2CCCO2)cc1F (configuration not stated) | 1.07 | 0.67 | 1.07 | 1.11 | 0.9 | 0.89
3 | CC#C[C@]1(O)CC[C@H]2[C@@H]3CCC4=CC(=O)CCC4=C3[C@@H](c3ccc(N(C)C)cc3)C[C@@]21C [Mifepristone] | 0.88 | 0.99 | 1.13 | 1.06 | 0.82 | 1.19
